Values of other authors, collected in patent US20220395499A1, “C[…] AFTER 5HT2A AGONISTS ADMINISTRATION” (Mind Medicine, Inc., priority 2021, published 2022).
At least one compound was matched to its structure with a doubt left.

Details: Griffiths et al., 2016; Passie et al., 2008

## CN(C)CCc1c[nH]c2cccc(OP(=O)(O)O)c12 [psilocybin]
  duration of action: 4 to 6 h
